Laboratory results: PMC7862700
The entries are a selection whose mix differs from that of the whole data set. At the low end of the ranking, values are background and their order means little.

Target: SPI1 (UniProt P17947)
Assay: DAPPL (digital affinity profiling via proximity ligation, sequencing)
Settings: 10 mM Tris-HCl pH 7.5, 50 mM NaCl, 1 mM DTT, 4% glycerol, room temperature, 30 min; GST-TFs on glutathione beads, 16-mer random dsDNA library, 0.1% …; high values mean tight binding; double strand, one strand shown; scale: fold enrichment (6-mer frequency, TF over GST control)

Sequence	binding signal
GACATA	0.863
GACGTC	0.757
CGCGGA	0.973
GTCGCA	0.809
GGGTGT	0.69
CACCAG	0.669
ACAGGC	0.673
TAGCCA	0.93
GTACGG	0.815
AGATCG	0.457
ATCGTA	0.803
GCAAGA	0.742
GTCAAC	0.911
GACCAC	0.827
AAGTGA	0.805
GGAGCC	0.342
GAGGTT	0.743
GGACCG	0.752
GTAAGA	0.79
GGCGCC	0.655

Sequence	binding signal
TGCGGG	0.701
CGCAAG	0.789
GCATAT	0.937
AGTTAG	0.882
GACCGT	0.449
GCGTGA	0.255
GGGTCC	0.772
TGGCGG	0.823
CAGACG	0.478
GGCGGA	0.367
GACCCG	0.73
GTTGGG	0.702
AGACAC	0.738
CGCGAG	0.568
CTGTGA	0.475
CAGTTA	0.722
GAGTTG	0.488
GCCGCG	0.814
GAGTCG	0.234
ACGGTG	0.529

Random excerpt: three entries already listed
Sequence	binding signal
CGCGAG	0.568
GTCAAC	0.911
GACCGT	0.449
